# Results taken from the supplement of paper PMC7752906.
# Where a name gives a salt, the structure may show the parent alone. The list shows a part of the results. This data set is noisy: repeats of one test often differ as much as different tests do.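 About 40 Schistosoma mansoni schistosomula per well were imaged over time in bright field and compared with 0.1% DMSO wells. A drug counts as a hit if its Mahalanobis distance reaches 2.47 or more, three standard deviations above the DMSO control mean. Degeneracy is the fraction of worms scored opaque.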
# Test system: Schistosoma mansoni schistosomula
# Test: Mahalanobis distance of static-rate-frequency phenotype descriptors from DMSO controls (dimensionless); higher = stronger phenotypic change versus DMSO
# Details: 10 µM; 72 h
row,Compound,Mahalanobis distance
1,CC(C)N(CCC(C(N)=O)(c1ccccc1)c1ccccn1)C(C)C (stereo unspecified) [Disopyramide],inactive: 1.22
2,Nc1nc(N)nc(NC2CC2)n1 [Cyromazine],inactive: 1.94
3,CN1[C@@H]2CC[C@H]1C[C@@H](OC(=O)[C@H](CO)c1ccccc1)C2 [Hyoscyamine],inactive: 1.85
4,O=C1CN=C(c2ccccc2Cl)c2cc([N+](=O)[O-])ccc2N1 [Clonazepam],active: 4.74
5,C=C(C)[C@H]1CN[C@H](C(=O)O)[C@H]1CC(=O)O [Kainic Acid],inactive: 1.27
6,CC[C@H]1CN2CC[C@H]1C[C@@H]2[C@@H](O)c1ccnc2ccc(OC)cc12 [Hydroquinidine],active: 2.8
7,COc1ccc(CN2CCNCC2)c(OC)c1OC [Trimetazidine],inactive: 2.45
8,CC(C)CC(N(C)C)C1(c2ccc(Cl)cc2)CCC1 (stereo unspecified) [Sibutramine],active: 2.49
9,CNC1(c2ccccc2Cl)CCCCC1=O (stereo unspecified) [Ketamine],active: 3.04
10,CCN(CC)C(=O)N[C@H]1C=C2c3cccc4[nH]cc(c34)C[C@H]2N(C)C1 [Lisuride],active: 2.51
11,O=C([O-])Cc1ccccc1.[Na+] [Sodium Phenylacetate],inactive: 1.52
12,COc1ccc2c(c1)[C@]13CCCC[C@@H]1[C@H](C2)N(C)CC3 [Dextromethorphan Hydrobromide],active: 4.71
13,CC(Cc1ccc(O)cc1)NCC(O)c1cc(O)cc(O)c1 (stereo unspecified) [Fenoterol Hydrobromide],inactive: 1.54
14,C=CCN=C=S [Allylisothiocyanate],inactive: 2
15,C=CC[C@]1(O)CC[C@H]2[C@@H]3CCC4=CC(=O)CCC4=C3C=C[C@@]21C [Altrenogest],active: 3.43
16,O=C1C=C2C=C[C@@H]3C[C@@]2(O1)[C@H]1CCCCN31 [securinine],active: 2.77
17,CCN[C@@H](C)Cc1cccc(C(F)(F)F)c1 [Dexfenfluramine],active: 3.34
18,NC(=O)C[S@@+]([O-])C(c1ccccc1)c1ccccc1 [Armodafinil],inactive: 2.21
19,CC(C)=CC1C(C(=O)OCc2cccc(Oc3ccccc3)c2)C1(C)C (stereo unspecified) [Phenothrin],inactive: 2.13
20,Nc1ccncc1 [4-aminopyridine],inactive: 2.15
21,COc1ccc(C(=O)N2CCCC2=O)cc1 [Aniracetam],active: 2.54
22,CC[C@@H](C(N)=O)N1CCCC1=O [Levetiracetam],inactive: 1.2
23,O=C(O)CCCc1ccc(N(CCCl)CCCl)cc1 [Chlorambucil],inactive: 1.81
24,CCCN1C[C@H](CSC)C[C@@H]2c3cccc4[nH]cc(c34)C[C@H]21 [Pergolide],active: 6.2

row,Compound,Mahalanobis distance
1,CNc1ccc(C(=O)CC(O)CCC(C)C2OC(=O)CC(O)CC(=O)CC(O)CC(O)CC(O)CC(O)CC3(O)CC(O)C(C(=O)OC)C(CC(O[C@@H]4O[C@H](C)[C@@H](O)[C@H](N)[C@@H]4O)/C=C/C=C/C=C/C=C/C=C/C=C/C=C/C2C)O3)cc1.COC(=O)C1C(O)CC2(O)CC(O)CC(O)CC(O)CC(O)CC(=O)CC(O)CC(=O)OC(C(C)CCC(O)CC(=O)c3ccc(N)cc3)C(C)/C=C/C=C/C=C/C=C/C=C/C=C/C=C/C(O[C@@H]3O[C@H](C)[C@@H](O)[C@H](N)[C@@H]3O)CC1O2 (stereo partly specified) [mepartricin],inactive: 1.59
2,Cc1ncc(CNC(=O)N(CCCl)N=O)c(N)n1 [Nimustine],inactive: 1.6
3,COc1cccc(C2(O)CCCCC2CN(C)C)c1 (stereo unspecified) [Tramadol Hydrochloride],active: 3.12
4,COc1cccc(C2(O)CCCCC2CN(C)C)c1 (stereo unspecified) [Tramadol],inactive: 2.35
5,CC(CCc1ccccc1)NC(C)C(O)c1ccc(O)cc1 (stereo unspecified) [Nylidrin],active: 2.96
6,CN1C[C@H](C(=O)N[C@]2(C)O[C@@]3(O)[C@@H]4CCCN4C(=O)[C@H](Cc4ccccc4)N3C2=O)C[C@@H]2c3cccc4[nH]cc(c34)C[C@H]21 [Dihydroergotamine],inactive: 2.33
7,CCC1(CC)C(=O)C=CNC1=O [Pyrithyldione],inactive: 2.44
8,CC(C)(C)NCC(O)c1cc(Cl)c(N)c(Cl)c1 (stereo unspecified) [Clenbuterol],inactive: 2.09
9,COC(=O)C1=CCCN(C)C1 [Arecoline Hydrobromide],active: 2.5
10,CNCC(=O)c1ccc(O)c(O)c1 [Adrenolone Hydrochloride],inactive: 2.35
11,O=C(NC(=O)c1c(F)cccc1F)Nc1cc(Cl)c(OC(F)(F)C(F)C(F)(F)F)cc1Cl (stereo unspecified) [Lufenuron],inactive: 2.07
12,COc1ccc(CCN2CCC(Nc3nc4ccccc4n3Cc3ccc(F)cc3)CC2)cc1 [Astemizole],inactive: 1.73
13,Oc1cc(Cl)ccc1Oc1ccc(Cl)cc1Cl [Triclosan],active: 2.63
14,COc1ccc(O)c(C(C)(C)C)c1.COc1ccc(O)cc1C(C)(C)C [Butylated Hydroxyanisole],active: 3.07
15,CCn1cc(C(=O)O)c(=O)c2cc3c(cc21)OCO3 [Oxolinic Acid],inactive: 2.09
16,C[N+]1(C)[C@@H]2C[C@@H](OC(=O)[C@H](CO)c3ccccc3)C[C@H]1[C@@H]1O[C@@H]12 [Methscopolamine Bromide],inactive: 1.36
17,CCN(C)C(=O)Oc1cccc([C@H](C)N(C)C)c1 [Rivastigmine Tartrate],inactive: 1.65
18,C[C@@H]1O[C@@H](O[C@H]2C[C@@H](O)[C@]3(CO)[C@H]4[C@H](O)C[C@]5(C)[C@@H](C6=CC(=O)OC6)CC[C@]5(O)[C@@H]4CC[C@]3(O)C2)[C@H](O)[C@H](O)[C@H]1O [Ouabain],active: 3.14
19,N=C1NC(=O)N2CC12 (stereo unspecified) [Imexon],inactive: 1.84
20,C[N+]1([O-])[C@@H]2CC[C@H]1C[C@@H](OC(=O)C(CO)c1ccccc1)C2 (stereo partly specified) [Atropine Oxide],inactive: 1.7
21,Clc1ccc(C(OCCN2CCCCC2)c2ccccc2)cc1 (stereo unspecified) [Cloperastine Hydrochloride],inactive: 1.95
22,C[C@@H](CO)NC(=O)[C@@H]1C=C2c3cccc4[nH]cc(c34)C[C@H]2N(C)C1 [Ergonovine Maleate],active: 4.9
23,C[C@@H](CO)NC(=O)[C@@H]1C=C2c3cccc4[nH]cc(c34)C[C@H]2N(C)C1 [Ergonovine],active: 3.23
24,O=C1CN=C(c2ccccc2)c2cc([N+](=O)[O-])ccc2N1 [Nitrazepam],active: 3.29

# Some of the entries so far, with tabs.
row	Compound	Mahalanobis distance
16	C[N+]1(C)[C@@H]2C[C@@H](OC(=O)[C@H](CO)c3ccccc3)C[C@H]1[C@@H]1O[C@@H]12 [Methscopolamine Bromide]	inactive: 1.36
17	CCN(C)C(=O)Oc1cccc([C@H](C)N(C)C)c1 [Rivastigmine Tartrate]	inactive: 1.65
18	C[C@@H]1O[C@@H](O[C@H]2C[C@@H](O)[C@]3(CO)[C@H]4[C@H](O)C[C@]5(C)[C@@H](C6=CC(=O)OC6)CC[C@]5(O)[C@@H]4CC[C@]3(O)C2)[C@H](O)[C@H](O)[C@H]1O [Ouabain]	active: 3.14
19	N=C1NC(=O)N2CC12 (stereo unspecified) [Imexon]	inactive: 1.84
20	C[N+]1([O-])[C@@H]2CC[C@H]1C[C@@H](OC(=O)C(CO)c1ccccc1)C2 (stereo partly specified) [Atropine Oxide]	inactive: 1.7
21	Clc1ccc(C(OCCN2CCCCC2)c2ccccc2)cc1 (stereo unspecified) [Cloperastine Hydrochloride]	inactive: 1.95

# Next part.

row,Compound,Mahalanobis distance
1,NC(=O)CN1CCCC1=O [Piracetam],inactive: 1.61
2,O=c1[nH]c(=O)n(Cl)c(=O)n1Cl [Troclosene Potassium],inactive: 1.75
3,CC(C)c1c(CN(C)C(C)Cc2ccccc2)n(C)n(-c2ccccc2)c1=O (stereo unspecified) [Famprofazone],active: 2.75
4,C=CCN1C[C@H](C(=O)N(CCCN(C)C)C(=O)NCC)C[C@@H]2c3cccc4[nH]cc(c34)C[C@H]21 [Cabergoline],active: 5.23
5,CC(CC(C(N)=O)(c1ccccc1)c1ccccc1)N(C)C (stereo unspecified) [Aminopentamide Sulfate],inactive: 1.48
6,OC[C@@H](O)[C@H]1O[C@@H]2O[C@H](C(Cl)(Cl)Cl)O[C@@H]2[C@H]1O [Chloralose],inactive: 1.51
7,C[N+]12CCC(CC1)C(OC(=O)C(O)(c1ccccc1)c1ccccc1)C2 (stereo unspecified) [Clidinium Bromide],inactive: 2.08
8,CO[C@]12C[C@@H](COC(=O)c3cncc(Br)c3)CN(C)[C@@H]1Cc1cn(C)c3cccc2c13 [Nicergoline],active: 3.27
9,COC(=O)C(c1ccccc1)C1CCCCN1 (stereo unspecified) [Methylphenidate Hydrochloride],inactive: 1.53
10,CCC(C)(C)O [Amylene Hydrate],inactive: 1.89
11,C[C@]12Cc3c[nH]nc3C[C@@H]1CC[C@@H]1[C@@H]2CC[C@@]2(C)[C@H]1CC[C@]2(C)O [Stanozolol],active: 2.48
12,C[C@@H]1CC[C@H]2[C@@H](C)C(=O)O[C@@H]3O[C@@]4(C)CC[C@@H]1[C@]32OO4 [Artemisinin],inactive: 1.79
13,COc1cc([C@@H]2c3cc4c(cc3[C@H](O)[C@H]3COC(=O)[C@H]23)OCO4)cc(OC)c1OC [podofilox],inactive: 2.11
14,CN(C)C(=O)Oc1cccc([N+](C)(C)C)c1 [Neostigmine Bromide],inactive: 2.42
15,CN1[C@H]2C[C@H](OC(=O)[C@H](CO)c3ccccc3)C[C@@H]1[C@@H](O)C2 [Anisodamine Hydrobromide],inactive: 2.46
16,CN1CCc2cc3c(cc2C1O)OCO3 (stereo unspecified) [Hydrastinine Hydrochloride],inactive: 1.81
17,NP(N)(=O)NC(=O)c1ccc(F)cc1 [Flurofamide],inactive: 1.36
18,CN1[C@@H]2CC[C@H]1C[C@@H](OC(=O)C(CO)c1ccccc1)C2 (stereo partly specified) [Atropine],inactive: 1.66
19,C[C@]12CCC(=O)C=C1CC[C@@H]1[C@@H]2CC[C@@]2(C)[C@H]1CC[C@]2(C)O [Methyltestosterone],active: 3.14
20,CC(C)C[C@H]1C(=O)N2CCC[C@H]2[C@]2(O)O[C@](NC(=O)[C@@H]3C=C4c5cccc6[nH]c(Br)c(c56)C[C@H]4N(C)C3)(C(C)C)C(=O)N12 [Bromocriptine Mesylate],active: 3.23
21,CNCC(O)c1ccc(O)cc1 (stereo unspecified) [Oxedrine],inactive: 1.44
22,C[C@]12CCC(=O)C(O)=C1CC[C@@H]1[C@@H]2CC[C@]2(C)C(=O)CC[C@@H]12 [Formestane],inactive: 2.22
23,"CCOP(=S)(OCC)Oc1cc(C)nc(C(C)C)n1 [Diazinon, Dimpylate]",inactive: 2.12
